Results are given in words; binding and its absence hold for the method and conditions named. In cells and extracts the contact can be indirect. Here binding means that the protein was enriched with, or labelled near, the bait; the list need not be complete.
What follows are substances tested against sacsin (human (endogenous in SH-SY5Y)) (UniProt Q9NZJ4) (assay: affinity purification with mass spectrometry).

By UniProt entry, the sequences of proteins in these tests, tags left out. Residues count along the entry.
UniProt Q9NZJ4: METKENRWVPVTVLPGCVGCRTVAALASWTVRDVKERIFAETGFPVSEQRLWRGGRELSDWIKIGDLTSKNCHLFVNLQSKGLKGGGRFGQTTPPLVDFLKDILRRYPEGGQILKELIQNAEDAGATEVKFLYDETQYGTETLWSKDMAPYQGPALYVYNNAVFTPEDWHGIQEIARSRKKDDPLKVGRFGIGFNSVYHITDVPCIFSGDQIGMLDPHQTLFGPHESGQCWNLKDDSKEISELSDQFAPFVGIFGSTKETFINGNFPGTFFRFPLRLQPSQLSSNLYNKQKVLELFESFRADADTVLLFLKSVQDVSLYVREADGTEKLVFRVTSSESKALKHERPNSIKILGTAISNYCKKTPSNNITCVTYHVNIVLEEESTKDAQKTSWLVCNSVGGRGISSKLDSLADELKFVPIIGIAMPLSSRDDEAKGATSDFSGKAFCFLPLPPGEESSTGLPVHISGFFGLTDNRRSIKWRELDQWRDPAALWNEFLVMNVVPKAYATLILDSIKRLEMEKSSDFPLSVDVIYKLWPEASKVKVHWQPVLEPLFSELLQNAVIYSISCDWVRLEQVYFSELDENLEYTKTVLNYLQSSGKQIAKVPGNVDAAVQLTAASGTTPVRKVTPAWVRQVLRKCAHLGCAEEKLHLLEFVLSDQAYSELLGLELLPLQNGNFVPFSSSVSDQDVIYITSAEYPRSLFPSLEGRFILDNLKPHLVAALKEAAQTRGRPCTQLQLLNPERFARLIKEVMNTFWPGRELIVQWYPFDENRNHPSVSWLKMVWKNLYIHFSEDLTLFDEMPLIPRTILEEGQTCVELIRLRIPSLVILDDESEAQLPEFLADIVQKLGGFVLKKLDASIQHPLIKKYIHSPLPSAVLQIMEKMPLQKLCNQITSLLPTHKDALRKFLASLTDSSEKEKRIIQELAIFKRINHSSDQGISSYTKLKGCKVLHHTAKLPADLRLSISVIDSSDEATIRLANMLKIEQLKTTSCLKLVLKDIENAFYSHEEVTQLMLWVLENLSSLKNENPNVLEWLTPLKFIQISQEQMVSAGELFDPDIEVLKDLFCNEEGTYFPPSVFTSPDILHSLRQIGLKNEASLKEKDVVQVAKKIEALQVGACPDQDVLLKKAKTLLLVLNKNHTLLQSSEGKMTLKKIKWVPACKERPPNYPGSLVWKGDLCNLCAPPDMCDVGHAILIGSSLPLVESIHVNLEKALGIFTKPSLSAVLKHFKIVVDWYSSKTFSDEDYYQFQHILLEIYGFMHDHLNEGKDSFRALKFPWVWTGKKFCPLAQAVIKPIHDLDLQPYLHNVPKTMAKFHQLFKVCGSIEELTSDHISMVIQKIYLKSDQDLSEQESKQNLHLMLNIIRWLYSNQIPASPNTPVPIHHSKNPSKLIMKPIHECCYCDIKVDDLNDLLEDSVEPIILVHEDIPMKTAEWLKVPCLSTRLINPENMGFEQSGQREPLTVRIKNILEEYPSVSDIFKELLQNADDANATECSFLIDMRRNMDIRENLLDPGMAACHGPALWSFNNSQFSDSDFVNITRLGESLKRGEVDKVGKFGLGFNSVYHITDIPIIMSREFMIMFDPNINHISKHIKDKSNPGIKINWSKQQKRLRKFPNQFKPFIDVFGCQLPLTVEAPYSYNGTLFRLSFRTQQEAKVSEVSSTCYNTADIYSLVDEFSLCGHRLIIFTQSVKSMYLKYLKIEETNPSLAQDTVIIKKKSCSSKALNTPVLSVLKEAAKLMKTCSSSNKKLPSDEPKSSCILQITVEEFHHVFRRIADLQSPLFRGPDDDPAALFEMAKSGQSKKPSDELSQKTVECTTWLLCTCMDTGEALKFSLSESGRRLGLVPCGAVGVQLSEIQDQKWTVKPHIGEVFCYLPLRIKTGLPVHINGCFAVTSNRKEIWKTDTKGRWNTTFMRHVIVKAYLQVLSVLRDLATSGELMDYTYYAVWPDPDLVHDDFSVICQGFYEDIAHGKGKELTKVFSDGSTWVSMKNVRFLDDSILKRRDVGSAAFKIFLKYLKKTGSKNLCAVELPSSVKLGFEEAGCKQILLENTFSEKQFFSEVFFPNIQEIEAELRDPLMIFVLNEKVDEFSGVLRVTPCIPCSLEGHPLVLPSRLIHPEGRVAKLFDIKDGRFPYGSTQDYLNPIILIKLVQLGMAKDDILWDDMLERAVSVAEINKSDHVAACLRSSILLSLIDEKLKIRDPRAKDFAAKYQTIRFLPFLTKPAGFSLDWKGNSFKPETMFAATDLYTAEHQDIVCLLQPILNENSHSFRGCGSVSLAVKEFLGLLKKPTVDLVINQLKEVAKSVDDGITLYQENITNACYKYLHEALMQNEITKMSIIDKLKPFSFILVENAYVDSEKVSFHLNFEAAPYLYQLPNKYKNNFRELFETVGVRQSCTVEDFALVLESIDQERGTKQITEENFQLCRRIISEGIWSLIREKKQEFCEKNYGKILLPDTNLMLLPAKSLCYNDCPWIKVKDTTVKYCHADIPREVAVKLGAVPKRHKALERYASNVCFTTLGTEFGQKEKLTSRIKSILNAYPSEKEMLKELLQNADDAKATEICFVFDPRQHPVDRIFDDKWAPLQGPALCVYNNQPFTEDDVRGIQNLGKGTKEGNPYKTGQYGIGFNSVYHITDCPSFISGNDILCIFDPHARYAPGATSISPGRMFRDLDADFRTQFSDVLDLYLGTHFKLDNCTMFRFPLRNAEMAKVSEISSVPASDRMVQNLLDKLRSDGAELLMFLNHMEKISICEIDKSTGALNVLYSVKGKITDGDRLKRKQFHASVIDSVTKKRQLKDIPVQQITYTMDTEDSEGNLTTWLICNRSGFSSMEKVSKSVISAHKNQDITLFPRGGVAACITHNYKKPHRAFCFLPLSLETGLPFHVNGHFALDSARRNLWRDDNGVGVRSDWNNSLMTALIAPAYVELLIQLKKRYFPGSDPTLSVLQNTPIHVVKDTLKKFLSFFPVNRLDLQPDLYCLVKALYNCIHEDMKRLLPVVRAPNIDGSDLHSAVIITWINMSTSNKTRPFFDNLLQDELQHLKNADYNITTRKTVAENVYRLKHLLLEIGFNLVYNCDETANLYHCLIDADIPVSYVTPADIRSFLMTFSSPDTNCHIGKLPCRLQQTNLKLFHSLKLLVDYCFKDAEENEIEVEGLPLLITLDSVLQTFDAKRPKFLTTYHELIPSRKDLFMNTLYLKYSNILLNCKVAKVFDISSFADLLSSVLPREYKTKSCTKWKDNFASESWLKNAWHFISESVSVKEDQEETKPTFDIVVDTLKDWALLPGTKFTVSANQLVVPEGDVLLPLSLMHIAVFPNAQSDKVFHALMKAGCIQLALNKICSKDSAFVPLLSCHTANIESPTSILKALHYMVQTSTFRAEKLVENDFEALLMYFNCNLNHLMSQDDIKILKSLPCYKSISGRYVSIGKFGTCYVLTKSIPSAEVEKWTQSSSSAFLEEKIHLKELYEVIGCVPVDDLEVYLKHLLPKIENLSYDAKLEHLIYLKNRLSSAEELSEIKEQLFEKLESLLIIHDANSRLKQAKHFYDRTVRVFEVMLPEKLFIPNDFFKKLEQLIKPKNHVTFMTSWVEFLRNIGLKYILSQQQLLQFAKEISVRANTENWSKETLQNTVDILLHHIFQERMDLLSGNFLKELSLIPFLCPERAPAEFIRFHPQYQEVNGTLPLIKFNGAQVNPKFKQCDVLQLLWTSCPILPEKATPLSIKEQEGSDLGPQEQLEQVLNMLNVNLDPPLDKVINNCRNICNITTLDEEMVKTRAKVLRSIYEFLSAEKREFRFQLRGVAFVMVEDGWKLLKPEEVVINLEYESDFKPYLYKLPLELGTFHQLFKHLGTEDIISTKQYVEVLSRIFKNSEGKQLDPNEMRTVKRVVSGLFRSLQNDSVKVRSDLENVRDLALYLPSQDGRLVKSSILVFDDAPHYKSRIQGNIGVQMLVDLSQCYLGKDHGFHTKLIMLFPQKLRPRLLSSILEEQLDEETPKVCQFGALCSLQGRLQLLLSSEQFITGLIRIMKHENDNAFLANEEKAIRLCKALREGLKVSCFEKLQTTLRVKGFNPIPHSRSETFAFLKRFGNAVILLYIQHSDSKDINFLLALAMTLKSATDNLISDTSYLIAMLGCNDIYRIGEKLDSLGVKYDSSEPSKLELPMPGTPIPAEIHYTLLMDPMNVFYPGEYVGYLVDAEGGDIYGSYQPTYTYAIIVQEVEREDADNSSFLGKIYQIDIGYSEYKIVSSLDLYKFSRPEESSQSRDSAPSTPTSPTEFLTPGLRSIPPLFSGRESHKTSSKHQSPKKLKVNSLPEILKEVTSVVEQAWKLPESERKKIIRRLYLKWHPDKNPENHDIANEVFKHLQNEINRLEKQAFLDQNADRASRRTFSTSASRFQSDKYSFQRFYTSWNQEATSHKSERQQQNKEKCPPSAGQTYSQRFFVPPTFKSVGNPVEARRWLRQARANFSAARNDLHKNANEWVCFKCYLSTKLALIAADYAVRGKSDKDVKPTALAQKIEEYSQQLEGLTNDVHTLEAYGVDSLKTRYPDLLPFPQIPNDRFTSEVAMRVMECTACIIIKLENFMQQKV
UniProt P11021, residues 19-654: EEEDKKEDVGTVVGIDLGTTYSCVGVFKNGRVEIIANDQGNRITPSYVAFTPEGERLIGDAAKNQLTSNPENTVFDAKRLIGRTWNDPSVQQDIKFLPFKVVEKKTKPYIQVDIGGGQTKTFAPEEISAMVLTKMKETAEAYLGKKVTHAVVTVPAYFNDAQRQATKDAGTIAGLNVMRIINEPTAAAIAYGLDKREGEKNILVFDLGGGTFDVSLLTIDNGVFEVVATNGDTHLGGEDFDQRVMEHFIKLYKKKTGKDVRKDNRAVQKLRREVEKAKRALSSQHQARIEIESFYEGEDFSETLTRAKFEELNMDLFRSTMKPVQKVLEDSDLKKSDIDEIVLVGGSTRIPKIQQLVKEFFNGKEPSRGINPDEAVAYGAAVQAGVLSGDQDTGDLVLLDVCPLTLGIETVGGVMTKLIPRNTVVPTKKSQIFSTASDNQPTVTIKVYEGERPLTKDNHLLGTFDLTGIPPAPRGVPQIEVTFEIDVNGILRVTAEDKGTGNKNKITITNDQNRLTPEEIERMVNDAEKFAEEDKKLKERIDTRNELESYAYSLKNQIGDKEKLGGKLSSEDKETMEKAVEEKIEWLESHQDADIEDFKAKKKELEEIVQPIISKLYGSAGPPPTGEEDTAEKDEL
UniProt P14625, residues 22-803: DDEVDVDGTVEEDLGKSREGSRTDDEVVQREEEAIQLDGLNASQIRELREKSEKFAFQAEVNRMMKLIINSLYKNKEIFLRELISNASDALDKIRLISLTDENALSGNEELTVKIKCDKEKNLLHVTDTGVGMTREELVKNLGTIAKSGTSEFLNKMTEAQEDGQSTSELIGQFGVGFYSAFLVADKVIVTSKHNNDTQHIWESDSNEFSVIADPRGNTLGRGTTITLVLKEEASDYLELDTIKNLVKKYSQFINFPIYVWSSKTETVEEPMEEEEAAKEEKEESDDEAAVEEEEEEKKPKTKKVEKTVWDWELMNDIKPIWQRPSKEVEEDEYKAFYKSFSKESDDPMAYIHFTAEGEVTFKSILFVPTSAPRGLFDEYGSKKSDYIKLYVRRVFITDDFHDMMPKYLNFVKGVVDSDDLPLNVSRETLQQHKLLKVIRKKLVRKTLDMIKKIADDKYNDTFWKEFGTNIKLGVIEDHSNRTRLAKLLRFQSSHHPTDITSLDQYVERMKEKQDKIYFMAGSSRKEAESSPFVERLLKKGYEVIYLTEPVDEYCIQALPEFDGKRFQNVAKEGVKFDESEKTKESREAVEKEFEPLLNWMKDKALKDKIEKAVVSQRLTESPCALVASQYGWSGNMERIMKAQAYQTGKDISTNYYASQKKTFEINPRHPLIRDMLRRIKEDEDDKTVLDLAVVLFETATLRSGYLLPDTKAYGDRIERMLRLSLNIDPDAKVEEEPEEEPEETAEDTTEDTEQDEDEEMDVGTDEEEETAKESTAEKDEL
UniProt P08670: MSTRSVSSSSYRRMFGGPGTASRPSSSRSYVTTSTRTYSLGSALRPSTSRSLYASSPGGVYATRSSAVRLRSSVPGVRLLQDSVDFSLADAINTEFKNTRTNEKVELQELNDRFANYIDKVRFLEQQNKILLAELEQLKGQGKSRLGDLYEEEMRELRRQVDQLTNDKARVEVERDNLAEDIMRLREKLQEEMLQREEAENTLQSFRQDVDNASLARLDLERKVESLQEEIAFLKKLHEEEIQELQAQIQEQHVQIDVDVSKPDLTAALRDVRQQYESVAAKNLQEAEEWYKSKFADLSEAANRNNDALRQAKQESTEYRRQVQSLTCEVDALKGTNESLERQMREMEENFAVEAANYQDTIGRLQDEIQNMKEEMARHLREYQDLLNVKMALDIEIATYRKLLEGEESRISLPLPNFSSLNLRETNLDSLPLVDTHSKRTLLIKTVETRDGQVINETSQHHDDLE

binding, binds:
vinculin (from UniProt P18206-2)
HSPA5/BIP (from UniProt P11021 19-654)
HSP90B1 (from UniProt P14625 22-803)
vimentin (from UniProt P08670 1-466)
